# Measured values reported in PMC10082759, “Shieldin complex assembly kinetics and DNA binding by SHLD3” (Communications Biology, 2022).
# Results are given in words; binding and its absence hold for the method and conditions named. Tags and fused reporters may be left off the sequences shown.
# Molecular target: T1, GST-SHLD3^1–62 (human) (UniProt Q6ZNX1)
# T1 sequence: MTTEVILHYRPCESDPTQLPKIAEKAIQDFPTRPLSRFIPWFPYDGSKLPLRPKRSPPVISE
# Assay: SEC; Shieldin assembly: 5 µM of MBP-SHLD2^1–60, GST-SHLD3^1–62 and REV7 mutants, 60 min on ice, Superdex-200 3.2/300 in buffer B; both purified
substance,measurement,value
REV7^ΔC (human) (domain or fragment),binding,no binding (tested: 5 µM)
